The list shows a part of the results.
Compound: COc1ccc(Cn2ccc3ccc(C(=O)NO)cc32)cc1
Assay: dose-dependent thermal stabilisation call (2D-TPP, DLPTP, 10% FDR) (binary (1 = stabilised)); higher = stabilised by the compound
Details: system: HL-60 intact cells; concentration range 0.04-10 µM

The chains behind the UniProt entries cited, without tags or fusion partners. Where a name states a change or a piece, a line headed by the entry shows the natural chain unless it says otherwise.
UniProt Q86UT6, whole entry: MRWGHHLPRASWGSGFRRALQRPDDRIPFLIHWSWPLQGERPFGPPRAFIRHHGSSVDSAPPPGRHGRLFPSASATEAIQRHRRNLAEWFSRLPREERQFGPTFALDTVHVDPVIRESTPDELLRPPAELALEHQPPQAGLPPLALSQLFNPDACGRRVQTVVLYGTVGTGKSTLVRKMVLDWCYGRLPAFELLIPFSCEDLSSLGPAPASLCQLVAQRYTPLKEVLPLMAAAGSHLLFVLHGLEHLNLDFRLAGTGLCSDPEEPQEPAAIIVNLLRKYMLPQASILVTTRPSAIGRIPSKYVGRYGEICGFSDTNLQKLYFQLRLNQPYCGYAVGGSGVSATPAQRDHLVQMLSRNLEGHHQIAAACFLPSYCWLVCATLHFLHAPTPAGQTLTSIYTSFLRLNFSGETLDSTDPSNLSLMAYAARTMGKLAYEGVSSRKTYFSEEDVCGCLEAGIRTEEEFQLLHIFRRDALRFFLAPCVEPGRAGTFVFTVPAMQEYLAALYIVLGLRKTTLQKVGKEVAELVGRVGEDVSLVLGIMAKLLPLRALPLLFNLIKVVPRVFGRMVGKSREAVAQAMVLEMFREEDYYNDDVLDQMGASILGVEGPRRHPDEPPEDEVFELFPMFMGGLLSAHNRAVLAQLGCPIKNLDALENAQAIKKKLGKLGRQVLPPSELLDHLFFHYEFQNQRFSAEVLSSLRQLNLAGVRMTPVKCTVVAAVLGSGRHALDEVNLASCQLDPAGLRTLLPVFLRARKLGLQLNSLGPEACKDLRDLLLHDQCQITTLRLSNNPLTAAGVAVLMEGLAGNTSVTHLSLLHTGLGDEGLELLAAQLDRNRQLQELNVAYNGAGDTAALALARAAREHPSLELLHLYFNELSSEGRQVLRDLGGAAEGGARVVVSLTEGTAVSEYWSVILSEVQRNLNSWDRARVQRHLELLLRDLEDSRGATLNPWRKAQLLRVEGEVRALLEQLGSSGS
UniProt P03905, whole entry, looked up: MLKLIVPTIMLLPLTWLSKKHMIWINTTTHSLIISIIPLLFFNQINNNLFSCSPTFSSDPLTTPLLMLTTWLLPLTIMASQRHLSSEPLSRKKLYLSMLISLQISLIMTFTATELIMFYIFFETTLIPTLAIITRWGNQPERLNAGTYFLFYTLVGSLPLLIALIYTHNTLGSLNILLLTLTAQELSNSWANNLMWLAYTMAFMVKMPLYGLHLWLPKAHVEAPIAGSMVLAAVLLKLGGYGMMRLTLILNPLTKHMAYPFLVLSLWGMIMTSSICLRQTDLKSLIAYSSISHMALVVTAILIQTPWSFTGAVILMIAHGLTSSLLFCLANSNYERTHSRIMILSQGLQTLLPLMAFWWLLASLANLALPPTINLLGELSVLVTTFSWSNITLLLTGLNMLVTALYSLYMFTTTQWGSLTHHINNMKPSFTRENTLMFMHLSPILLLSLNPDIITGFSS
UniProt Q9UBK8: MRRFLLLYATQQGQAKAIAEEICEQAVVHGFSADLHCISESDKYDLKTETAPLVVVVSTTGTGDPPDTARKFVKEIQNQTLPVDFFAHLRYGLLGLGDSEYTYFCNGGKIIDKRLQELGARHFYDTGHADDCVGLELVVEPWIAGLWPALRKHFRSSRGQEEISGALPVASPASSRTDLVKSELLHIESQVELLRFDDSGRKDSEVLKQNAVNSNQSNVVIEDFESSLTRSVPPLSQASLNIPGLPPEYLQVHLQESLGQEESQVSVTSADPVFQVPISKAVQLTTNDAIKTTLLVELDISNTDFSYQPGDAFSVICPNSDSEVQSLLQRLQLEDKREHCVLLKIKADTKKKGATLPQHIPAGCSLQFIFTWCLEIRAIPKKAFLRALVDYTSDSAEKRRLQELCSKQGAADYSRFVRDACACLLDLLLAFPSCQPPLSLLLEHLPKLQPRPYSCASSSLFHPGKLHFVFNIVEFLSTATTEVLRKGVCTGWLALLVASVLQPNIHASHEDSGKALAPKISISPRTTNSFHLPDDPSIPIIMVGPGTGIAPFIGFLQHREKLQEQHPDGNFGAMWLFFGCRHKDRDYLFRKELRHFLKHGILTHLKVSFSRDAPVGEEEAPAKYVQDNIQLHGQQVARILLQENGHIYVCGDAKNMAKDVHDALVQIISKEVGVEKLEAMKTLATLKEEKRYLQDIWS
UniProt P20585: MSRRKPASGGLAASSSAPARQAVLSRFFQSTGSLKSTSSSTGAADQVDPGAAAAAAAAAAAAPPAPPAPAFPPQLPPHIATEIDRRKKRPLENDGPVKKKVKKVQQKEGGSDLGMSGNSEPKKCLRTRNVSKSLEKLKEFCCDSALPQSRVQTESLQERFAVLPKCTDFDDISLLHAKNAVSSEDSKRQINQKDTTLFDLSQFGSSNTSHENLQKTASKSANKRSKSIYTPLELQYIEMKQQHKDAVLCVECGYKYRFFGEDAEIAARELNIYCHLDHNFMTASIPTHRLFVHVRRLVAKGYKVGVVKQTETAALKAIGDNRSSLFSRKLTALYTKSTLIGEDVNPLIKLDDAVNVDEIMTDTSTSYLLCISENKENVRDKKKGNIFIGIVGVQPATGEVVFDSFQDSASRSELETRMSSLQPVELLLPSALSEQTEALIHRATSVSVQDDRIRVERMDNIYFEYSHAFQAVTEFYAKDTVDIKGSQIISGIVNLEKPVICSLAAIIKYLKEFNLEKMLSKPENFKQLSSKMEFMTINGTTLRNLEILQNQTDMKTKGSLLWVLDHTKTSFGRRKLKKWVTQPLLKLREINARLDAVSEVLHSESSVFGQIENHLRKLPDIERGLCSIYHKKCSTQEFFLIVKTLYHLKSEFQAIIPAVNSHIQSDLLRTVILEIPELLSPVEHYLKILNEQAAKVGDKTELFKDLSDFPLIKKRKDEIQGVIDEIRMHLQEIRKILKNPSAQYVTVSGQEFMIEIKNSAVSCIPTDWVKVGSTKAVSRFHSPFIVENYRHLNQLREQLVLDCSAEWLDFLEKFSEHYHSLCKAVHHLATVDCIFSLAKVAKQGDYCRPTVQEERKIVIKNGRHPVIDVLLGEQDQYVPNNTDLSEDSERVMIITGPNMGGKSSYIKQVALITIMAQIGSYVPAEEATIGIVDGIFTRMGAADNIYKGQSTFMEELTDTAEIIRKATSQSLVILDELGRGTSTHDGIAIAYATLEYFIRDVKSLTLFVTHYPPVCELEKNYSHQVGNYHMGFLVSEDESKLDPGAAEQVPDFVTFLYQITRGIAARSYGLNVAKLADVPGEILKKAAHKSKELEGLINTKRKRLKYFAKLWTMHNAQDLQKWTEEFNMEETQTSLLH
UniProt Q9NPE2: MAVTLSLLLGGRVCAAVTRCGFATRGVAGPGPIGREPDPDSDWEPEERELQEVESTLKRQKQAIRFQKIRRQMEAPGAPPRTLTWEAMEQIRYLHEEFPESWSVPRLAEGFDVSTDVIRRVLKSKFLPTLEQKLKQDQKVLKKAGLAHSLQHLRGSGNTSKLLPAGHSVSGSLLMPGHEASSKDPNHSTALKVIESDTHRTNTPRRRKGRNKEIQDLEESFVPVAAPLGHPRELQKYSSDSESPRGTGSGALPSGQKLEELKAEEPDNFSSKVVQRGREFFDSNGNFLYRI
UniProt A2RRP1: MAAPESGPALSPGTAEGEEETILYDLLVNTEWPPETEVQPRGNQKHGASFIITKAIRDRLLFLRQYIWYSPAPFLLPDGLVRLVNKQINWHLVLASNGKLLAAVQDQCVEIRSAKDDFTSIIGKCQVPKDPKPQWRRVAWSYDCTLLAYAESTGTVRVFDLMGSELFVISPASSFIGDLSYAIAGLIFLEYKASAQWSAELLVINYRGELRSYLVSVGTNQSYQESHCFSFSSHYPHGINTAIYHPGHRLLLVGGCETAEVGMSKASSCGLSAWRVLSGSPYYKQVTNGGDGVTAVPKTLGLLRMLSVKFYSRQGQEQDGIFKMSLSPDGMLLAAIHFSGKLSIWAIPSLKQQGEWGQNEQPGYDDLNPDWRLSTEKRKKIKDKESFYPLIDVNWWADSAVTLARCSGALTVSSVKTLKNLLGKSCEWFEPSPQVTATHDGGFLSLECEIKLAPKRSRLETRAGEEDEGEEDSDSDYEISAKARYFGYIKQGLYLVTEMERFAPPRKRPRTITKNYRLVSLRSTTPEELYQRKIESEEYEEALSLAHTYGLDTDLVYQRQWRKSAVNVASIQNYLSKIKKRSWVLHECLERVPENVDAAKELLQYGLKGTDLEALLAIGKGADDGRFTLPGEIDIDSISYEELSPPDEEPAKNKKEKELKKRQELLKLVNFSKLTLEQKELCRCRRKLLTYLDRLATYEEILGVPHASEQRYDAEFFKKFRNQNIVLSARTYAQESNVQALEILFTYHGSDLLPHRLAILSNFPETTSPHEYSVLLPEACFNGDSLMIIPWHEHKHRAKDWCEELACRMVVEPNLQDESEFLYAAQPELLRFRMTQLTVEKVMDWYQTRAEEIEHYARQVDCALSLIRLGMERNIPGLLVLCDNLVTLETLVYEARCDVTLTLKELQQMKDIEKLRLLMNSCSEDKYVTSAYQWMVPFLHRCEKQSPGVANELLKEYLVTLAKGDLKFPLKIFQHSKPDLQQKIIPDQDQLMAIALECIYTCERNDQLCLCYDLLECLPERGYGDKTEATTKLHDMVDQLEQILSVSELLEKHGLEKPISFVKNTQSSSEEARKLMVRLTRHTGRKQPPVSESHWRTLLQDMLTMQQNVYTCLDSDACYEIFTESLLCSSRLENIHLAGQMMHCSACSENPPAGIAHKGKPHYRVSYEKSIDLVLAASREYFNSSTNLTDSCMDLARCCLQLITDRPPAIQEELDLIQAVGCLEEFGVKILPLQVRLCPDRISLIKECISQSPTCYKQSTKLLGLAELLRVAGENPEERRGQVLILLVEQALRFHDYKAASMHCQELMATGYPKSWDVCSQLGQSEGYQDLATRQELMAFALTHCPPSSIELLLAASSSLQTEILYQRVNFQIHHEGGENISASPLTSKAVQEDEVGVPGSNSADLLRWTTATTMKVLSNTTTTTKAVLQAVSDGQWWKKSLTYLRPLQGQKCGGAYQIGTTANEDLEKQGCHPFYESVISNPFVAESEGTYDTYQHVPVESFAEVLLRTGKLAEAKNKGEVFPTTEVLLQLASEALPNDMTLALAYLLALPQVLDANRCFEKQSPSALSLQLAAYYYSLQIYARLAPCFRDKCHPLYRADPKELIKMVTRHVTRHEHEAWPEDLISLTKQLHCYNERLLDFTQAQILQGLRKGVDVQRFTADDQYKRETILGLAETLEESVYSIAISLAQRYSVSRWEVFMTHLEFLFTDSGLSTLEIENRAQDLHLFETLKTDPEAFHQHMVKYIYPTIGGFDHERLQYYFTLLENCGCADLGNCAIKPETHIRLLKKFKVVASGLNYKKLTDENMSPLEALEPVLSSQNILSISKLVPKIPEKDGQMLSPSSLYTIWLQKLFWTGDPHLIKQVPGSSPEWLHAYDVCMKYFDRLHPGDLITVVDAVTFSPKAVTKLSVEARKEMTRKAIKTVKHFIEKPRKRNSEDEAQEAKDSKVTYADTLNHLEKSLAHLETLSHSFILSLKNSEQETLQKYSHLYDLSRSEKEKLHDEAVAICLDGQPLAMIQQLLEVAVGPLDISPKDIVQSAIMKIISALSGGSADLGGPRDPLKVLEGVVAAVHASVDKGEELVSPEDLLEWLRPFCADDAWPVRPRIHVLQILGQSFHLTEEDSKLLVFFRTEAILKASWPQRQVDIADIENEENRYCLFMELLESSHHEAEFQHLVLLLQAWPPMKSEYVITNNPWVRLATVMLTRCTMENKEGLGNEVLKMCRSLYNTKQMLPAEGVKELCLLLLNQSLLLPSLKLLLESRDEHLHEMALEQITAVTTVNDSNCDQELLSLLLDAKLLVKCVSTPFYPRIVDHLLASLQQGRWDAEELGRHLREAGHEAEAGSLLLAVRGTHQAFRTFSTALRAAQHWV
UniProt O14777: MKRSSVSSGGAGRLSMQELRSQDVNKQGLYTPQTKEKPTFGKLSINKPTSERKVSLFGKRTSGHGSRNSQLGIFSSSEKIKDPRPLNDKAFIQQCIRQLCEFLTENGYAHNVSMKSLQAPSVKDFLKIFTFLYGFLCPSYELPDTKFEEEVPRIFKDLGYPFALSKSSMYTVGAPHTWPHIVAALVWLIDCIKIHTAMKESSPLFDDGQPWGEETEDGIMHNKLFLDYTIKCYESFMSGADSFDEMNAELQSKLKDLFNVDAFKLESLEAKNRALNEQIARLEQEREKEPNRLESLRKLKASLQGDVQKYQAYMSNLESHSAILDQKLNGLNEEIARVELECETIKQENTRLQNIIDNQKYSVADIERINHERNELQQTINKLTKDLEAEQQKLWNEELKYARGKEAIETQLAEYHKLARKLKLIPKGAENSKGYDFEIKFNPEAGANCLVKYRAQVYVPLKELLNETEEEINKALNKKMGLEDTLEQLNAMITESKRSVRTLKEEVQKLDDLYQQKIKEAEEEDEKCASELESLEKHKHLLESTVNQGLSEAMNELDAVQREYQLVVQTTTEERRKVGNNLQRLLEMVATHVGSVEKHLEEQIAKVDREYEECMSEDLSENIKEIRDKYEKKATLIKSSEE

Target: NCAPG (UniProt Q9BPX3)
- dose-dependent thermal stabilisation call: inactive: 0

Target: MRTO4 (UniProt Q9UKD2)
- dose-dependent thermal stabilisation call: inactive: 0

Target: MRS2 (UniProt Q9HD23)
- dose-dependent thermal stabilisation call: inactive: 0

Target: NOC4L (UniProt Q9BVI4)
- dose-dependent thermal stabilisation call: inactive: 0

Target: NACA
- dose-dependent thermal stabilisation call: inactive: 0

Target: NDUFB5 (UniProt O43674)
- dose-dependent thermal stabilisation call: inactive: 0

Target: NFXL1 (UniProt Q6ZNB6)
- dose-dependent thermal stabilisation call: inactive: 0

Target: MYD88 (UniProt Q99836)
- dose-dependent thermal stabilisation call: inactive: 0

Target: NOP10 (UniProt Q9NPE3)
- dose-dependent thermal stabilisation call: inactive: 0

Target: NOP2 (UniProt P46087)
- dose-dependent thermal stabilisation call: inactive: 0

Target: MTX2 (UniProt O75431)
- dose-dependent thermal stabilisation call: inactive: 0

Target: NACC1 (UniProt Q96RE7)
- dose-dependent thermal stabilisation call: inactive: 0

Target: NAAA (UniProt Q02083)
- dose-dependent thermal stabilisation call: inactive: 0

Target: NCLN (UniProt Q969V3)
- dose-dependent thermal stabilisation call: inactive: 0

Target: NAIF1 (UniProt Q69YI7)
- dose-dependent thermal stabilisation call: inactive: 0

Target: NAPRT1 (UniProt Q6XQN6)
- dose-dependent thermal stabilisation call: inactive: 0

Target: NCDN (UniProt Q9UBB6)
- dose-dependent thermal stabilisation call: inactive: 0

Target: NLRX1 (UniProt Q86UT6)
- dose-dependent thermal stabilisation call: inactive: 0

Target: NDFIP2 (UniProt Q9NV92)
- dose-dependent thermal stabilisation call: inactive: 0

Target: MYL6B (UniProt P14649)
- dose-dependent thermal stabilisation call: inactive: 0

Target: NDUFB7 (UniProt P17568)
- dose-dependent thermal stabilisation call: inactive: 0

Target: NF1 (UniProt P21359)
- dose-dependent thermal stabilisation call: inactive: 0

Target: NANP (UniProt Q8TBE9)
- dose-dependent thermal stabilisation call: inactive: 0

Target: NEK3 (UniProt P51956)
- dose-dependent thermal stabilisation call: inactive: 0

Target: NAGK (UniProt Q9UJ70)
- dose-dependent thermal stabilisation call: inactive: 0

Target: NAMPT (UniProt P43490)
- dose-dependent thermal stabilisation call: inactive: 0

Target: NDUFV1 (UniProt P49821)
- dose-dependent thermal stabilisation call: inactive: 0

Target: NDOR1 (UniProt Q9UHB4)
- dose-dependent thermal stabilisation call: inactive: 0

Target: MSRB3 (UniProt Q8IXL7)
- dose-dependent thermal stabilisation call: inactive: 0

Target: NARG1 (UniProt Q9BXJ9)
- dose-dependent thermal stabilisation call: inactive: 0

Target: ND4 (UniProt P03905)
- dose-dependent thermal stabilisation call: inactive: 0

Target: MTRR (UniProt Q9UBK8)
- dose-dependent thermal stabilisation call: inactive: 0

Target: NME6 (UniProt O75414)
- dose-dependent thermal stabilisation call: inactive: 0

Target: MTMR10 (UniProt Q9NXD2)
- dose-dependent thermal stabilisation call: inactive: 0

Target: NAGA (UniProt P17050)
- dose-dependent thermal stabilisation call: inactive: 0

Target: NIPSNAP1 (UniProt Q9BPW8)
- dose-dependent thermal stabilisation call: inactive: 0

Target: MSH3 (UniProt P20585)
- dose-dependent thermal stabilisation call: inactive: 0

Target: NPC1 (UniProt O15118)
- dose-dependent thermal stabilisation call: inactive: 0

Target: NIBP (UniProt Q96Q05)
- dose-dependent thermal stabilisation call: inactive: 0

Target: MTHFSD (UniProt Q2M296)
- dose-dependent thermal stabilisation call: inactive: 0

Target: NAT11 (UniProt Q86UY6)
- dose-dependent thermal stabilisation call: inactive: 0

Target: NOL11 (UniProt Q9H8H0)
- dose-dependent thermal stabilisation call: inactive: 0

Target: NFIC (UniProt P08651)
- dose-dependent thermal stabilisation call: inactive: 0

Target: NDUFA1 (UniProt O15239)
- dose-dependent thermal stabilisation call: inactive: 0

Target: MTX1 (UniProt Q13505)
- dose-dependent thermal stabilisation call: inactive: 0

Target: NEU1 (UniProt Q99519)
- dose-dependent thermal stabilisation call: inactive: 0

Target: MVK (UniProt Q03426)
- dose-dependent thermal stabilisation call: inactive: 0

Target: NDUFS3 (UniProt O75489)
- dose-dependent thermal stabilisation call: inactive: 0

Target: MTMR14 (UniProt Q8NCE2)
- dose-dependent thermal stabilisation call: inactive: 0

Target: MRPS9 (UniProt P82933)
- dose-dependent thermal stabilisation call: inactive: 0

Target: NQO2 (UniProt P16083)
- dose-dependent thermal stabilisation call: active: 1

Target: NDUFV3 (UniProt P56181)
- dose-dependent thermal stabilisation call: inactive: 0

Target: NAB2 (UniProt Q15742)
- dose-dependent thermal stabilisation call: inactive: 0

Target: MYCBP2 (UniProt O75592)
- dose-dependent thermal stabilisation call: inactive: 0

Target: NDUFA13 (UniProt Q9P0J0)
- dose-dependent thermal stabilisation call: inactive: 0

Target: MYO1G (UniProt B0I1T2)
- dose-dependent thermal stabilisation call: inactive: 0

Target: NOC3L (UniProt Q8WTT2)
- dose-dependent thermal stabilisation call: inactive: 0

Target: NMD3 (UniProt Q96D46)
- dose-dependent thermal stabilisation call: inactive: 0

Target: NDUFS2 (UniProt O75306)
- dose-dependent thermal stabilisation call: inactive: 0

Target: NDFIP1 (UniProt Q9BT67)
- dose-dependent thermal stabilisation call: inactive: 0

Target: NGRN (UniProt Q9NPE2)
- dose-dependent thermal stabilisation call: inactive: 0

Target: MSH6 (UniProt P52701)
- dose-dependent thermal stabilisation call: inactive: 0

Target: N4BP1 (UniProt O75113)
- dose-dependent thermal stabilisation call: inactive: 0

Target: MTCH2 (UniProt Q9Y6C9)
- dose-dependent thermal stabilisation call: inactive: 0

Target: NR2C1 (UniProt P13056)
- dose-dependent thermal stabilisation call: inactive: 0

Target: NAGLU (UniProt P54802)
- dose-dependent thermal stabilisation call: inactive: 0

Target: NDUFA11 (UniProt Q86Y39)
- dose-dependent thermal stabilisation call: inactive: 0

Target: NHEJ1 (UniProt Q9H9Q4)
- dose-dependent thermal stabilisation call: inactive: 0

Target: MRPS7 (UniProt Q9Y2R9)
- dose-dependent thermal stabilisation call: inactive: 0

Target: MSN (UniProt P26038)
- dose-dependent thermal stabilisation call: inactive: 0

Target: NAG (UniProt A2RRP1)
- dose-dependent thermal stabilisation call: inactive: 0

Target: NCK2 (UniProt O43639)
- dose-dependent thermal stabilisation call: inactive: 0

Target: NIPBL (UniProt Q6KC79)
- dose-dependent thermal stabilisation call: inactive: 0

Target: NAT10 (UniProt Q9H0A0)
- dose-dependent thermal stabilisation call: inactive: 0

Target: NADSYN1 (UniProt Q6IA69)
- dose-dependent thermal stabilisation call: inactive: 0

Target: MTIF2 (UniProt P46199)
- dose-dependent thermal stabilisation call: inactive: 0

Target: NDUFS1 (UniProt P28331)
- dose-dependent thermal stabilisation call: inactive: 0

Target: MYH9 (UniProt P35579)
- dose-dependent thermal stabilisation call: inactive: 0

Target: NDRG3 (UniProt Q9UGV2)
- dose-dependent thermal stabilisation call: inactive: 0

Target: NCSTN (UniProt Q92542)
- dose-dependent thermal stabilisation call: inactive: 0

Target: MTPAP (UniProt Q9NVV4)
- dose-dependent thermal stabilisation call: inactive: 0

Target: NIP7 (UniProt Q9Y221)
- dose-dependent thermal stabilisation call: inactive: 0

Target: NMRAL1 (UniProt Q9HBL8)
- dose-dependent thermal stabilisation call: active: 1

Target: NDUFS8 (UniProt O00217)
- dose-dependent thermal stabilisation call: inactive: 0

Target: MYO9B (UniProt Q13459)
- dose-dependent thermal stabilisation call: inactive: 0

Target: NDC80 (UniProt O14777)
- dose-dependent thermal stabilisation call: inactive: 0

Target: NFX1 (UniProt Q12986)
- dose-dependent thermal stabilisation call: inactive: 0

Target: MTHFR (UniProt P42898)
- dose-dependent thermal stabilisation call: inactive: 0

Target: NAP1L1 (UniProt P55209)
- dose-dependent thermal stabilisation call: inactive: 0

Target: MTIF3 (UniProt Q9H2K0)
- dose-dependent thermal stabilisation call: inactive: 0

Target: NCOA6 (UniProt Q14686)
- dose-dependent thermal stabilisation call: inactive: 0

Target: NAPA (UniProt P54920)
- dose-dependent thermal stabilisation call: inactive: 0

Target: NHP2 (UniProt Q9NX24)
- dose-dependent thermal stabilisation call: inactive: 0

Target: NDUFB6 (UniProt O95139)
- dose-dependent thermal stabilisation call: inactive: 0

Target: NARS (UniProt O43776)
- dose-dependent thermal stabilisation call: inactive: 0

Target: NFYA (UniProt P23511)
- dose-dependent thermal stabilisation call: inactive: 0

Target: MTRF1L (UniProt Q9UGC7)
- dose-dependent thermal stabilisation call: inactive: 0

Target: MTF2 (UniProt Q9Y483)
- dose-dependent thermal stabilisation call: inactive: 0

Target: NDRG1 (UniProt Q92597)
- dose-dependent thermal stabilisation call: inactive: 0

Target: NAF1 (UniProt Q96HR8)
- dose-dependent thermal stabilisation call: inactive: 0

Target: MTHFS (UniProt P49914)
- dose-dependent thermal stabilisation call: inactive: 0

Target: MTA2 (UniProt O94776)
- dose-dependent thermal stabilisation call: inactive: 0

Target: MYST1 (UniProt Q9H7Z6)
- dose-dependent thermal stabilisation call: inactive: 0

Target: MTCH1 (UniProt Q9NZJ7)
- dose-dependent thermal stabilisation call: inactive: 0

Target: MTMR3 (UniProt Q13615)
- dose-dependent thermal stabilisation call: inactive: 0

Target: NCKAP1L (UniProt P55160)
- dose-dependent thermal stabilisation call: inactive: 0

Target: N4BP2 (UniProt Q86UW6)
- dose-dependent thermal stabilisation call: inactive: 0

Target: NDUFA4 (UniProt O00483)
- dose-dependent thermal stabilisation call: inactive: 0

Target: ND1 (UniProt P03886)
- dose-dependent thermal stabilisation call: inactive: 0

Target: NEK7 (UniProt Q8TDX7)
- dose-dependent thermal stabilisation call: inactive: 0

Target: NHSL1 (UniProt Q5SYE7)
- dose-dependent thermal stabilisation call: inactive: 0

Target: NOB1 (UniProt Q9ULX3)
- dose-dependent thermal stabilisation call: inactive: 0

Target: NISCH (UniProt Q9Y2I1)
- dose-dependent thermal stabilisation call: inactive: 0
